Toxoplasma: 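Assay of Toxoplasma gondii numbers, read through their beta-galactosidase reporter with a colour substrate. Tested at 10 µM. Higher reads as fewer parasites (inferred from which compounds were picked for retests). Of about 67,000 compounds tested this way, about 260 (0.38%) reached 50% or more in at least one test.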
Pks13 thioesterase: 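Polyketide synthase Pks13, Mycobacterium tuberculosis (UniProt I6X8D2). Enzyme assay of the thioesterase domain of polyketide synthase 13; the read-out is not stated. Concentration: 30 µM. The record gives no direction; the compounds picked for IC50 retests had high values, so higher reads as stronger inhibition. Of about 67,000 compounds tested this way, about 300 (0.46%) reached 50% or more in at least one test.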
PfKRS1: 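Enzyme assay of the cytosolic lysyl-tRNA synthetase in 384-well plates, read by luminescence. Target: Lysine-tRNA ligase, Plasmodium falciparum 3D7 (UniProt Q8IDJ8). Tested at 30 µM. Direction is inferred from only a few compounds that gave an IC50; most scored high, so higher reads as stronger inhibition. Size under these conditions: about 69,000 compounds, about 49 of them at 50% or above in at least one test.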
CoaBC: 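Coenzyme A biosynthesis protein CoaBC, Mycobacterium tuberculosis (UniProt P9WNZ1). Enzyme assay of CoaBC with a phosphate dye (Biomol Green) read at 650 nm. Tested at 30 µM. Higher reads as stronger inhibition, judged from the few compounds that gave an IC50. Most strong results did not repeat in a second test. About 67,000 compounds were tested under these conditions; 0.06% (about 40) showed 50% or more at least once.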

Amino acid sequences for entries named in this document (tags omitted). Residues count along the entry.
UniProt I6X8D2, whole entry: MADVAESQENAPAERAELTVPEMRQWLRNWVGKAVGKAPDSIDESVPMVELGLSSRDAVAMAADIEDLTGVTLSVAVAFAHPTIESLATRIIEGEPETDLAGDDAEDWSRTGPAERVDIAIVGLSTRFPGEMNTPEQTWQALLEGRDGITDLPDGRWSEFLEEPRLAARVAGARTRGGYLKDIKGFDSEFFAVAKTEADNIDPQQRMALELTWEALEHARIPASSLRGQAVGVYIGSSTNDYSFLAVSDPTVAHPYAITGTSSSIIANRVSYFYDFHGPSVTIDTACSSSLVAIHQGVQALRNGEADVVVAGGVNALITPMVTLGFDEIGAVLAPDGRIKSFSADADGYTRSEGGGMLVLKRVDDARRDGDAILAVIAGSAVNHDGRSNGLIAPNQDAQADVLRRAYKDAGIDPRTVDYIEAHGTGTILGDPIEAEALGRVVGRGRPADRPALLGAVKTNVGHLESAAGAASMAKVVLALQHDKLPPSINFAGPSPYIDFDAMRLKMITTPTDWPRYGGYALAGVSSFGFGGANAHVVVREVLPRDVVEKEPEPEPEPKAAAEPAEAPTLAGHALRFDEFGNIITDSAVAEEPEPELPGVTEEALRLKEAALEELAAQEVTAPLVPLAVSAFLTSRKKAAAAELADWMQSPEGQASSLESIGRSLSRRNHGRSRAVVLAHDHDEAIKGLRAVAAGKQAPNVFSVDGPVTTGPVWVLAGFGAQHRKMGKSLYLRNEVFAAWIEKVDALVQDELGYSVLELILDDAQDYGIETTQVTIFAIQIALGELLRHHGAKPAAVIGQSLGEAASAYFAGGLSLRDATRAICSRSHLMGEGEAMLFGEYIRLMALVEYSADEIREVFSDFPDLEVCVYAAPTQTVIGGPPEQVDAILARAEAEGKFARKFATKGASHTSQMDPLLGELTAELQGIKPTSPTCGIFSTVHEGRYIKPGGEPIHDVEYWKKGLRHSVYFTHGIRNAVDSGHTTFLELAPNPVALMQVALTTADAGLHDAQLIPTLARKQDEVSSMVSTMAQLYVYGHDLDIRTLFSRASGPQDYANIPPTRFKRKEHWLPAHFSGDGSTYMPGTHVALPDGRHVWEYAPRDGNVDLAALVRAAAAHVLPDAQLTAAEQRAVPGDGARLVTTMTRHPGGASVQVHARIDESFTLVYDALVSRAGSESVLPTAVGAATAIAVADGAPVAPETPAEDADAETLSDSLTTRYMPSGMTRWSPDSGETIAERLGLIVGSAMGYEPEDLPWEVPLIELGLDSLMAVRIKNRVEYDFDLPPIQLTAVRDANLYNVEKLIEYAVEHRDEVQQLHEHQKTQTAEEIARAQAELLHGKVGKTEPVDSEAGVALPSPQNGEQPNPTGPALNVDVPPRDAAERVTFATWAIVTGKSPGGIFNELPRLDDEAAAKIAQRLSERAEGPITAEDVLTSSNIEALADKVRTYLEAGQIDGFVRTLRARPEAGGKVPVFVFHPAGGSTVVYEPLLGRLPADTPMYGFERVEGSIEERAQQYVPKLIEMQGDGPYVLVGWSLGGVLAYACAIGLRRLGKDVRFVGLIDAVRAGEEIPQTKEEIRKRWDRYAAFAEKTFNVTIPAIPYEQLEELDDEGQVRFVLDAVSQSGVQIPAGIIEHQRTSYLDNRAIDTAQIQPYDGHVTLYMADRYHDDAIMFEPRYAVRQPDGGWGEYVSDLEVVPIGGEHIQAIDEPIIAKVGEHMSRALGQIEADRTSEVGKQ
UniProt Q8IDJ8, 1-583: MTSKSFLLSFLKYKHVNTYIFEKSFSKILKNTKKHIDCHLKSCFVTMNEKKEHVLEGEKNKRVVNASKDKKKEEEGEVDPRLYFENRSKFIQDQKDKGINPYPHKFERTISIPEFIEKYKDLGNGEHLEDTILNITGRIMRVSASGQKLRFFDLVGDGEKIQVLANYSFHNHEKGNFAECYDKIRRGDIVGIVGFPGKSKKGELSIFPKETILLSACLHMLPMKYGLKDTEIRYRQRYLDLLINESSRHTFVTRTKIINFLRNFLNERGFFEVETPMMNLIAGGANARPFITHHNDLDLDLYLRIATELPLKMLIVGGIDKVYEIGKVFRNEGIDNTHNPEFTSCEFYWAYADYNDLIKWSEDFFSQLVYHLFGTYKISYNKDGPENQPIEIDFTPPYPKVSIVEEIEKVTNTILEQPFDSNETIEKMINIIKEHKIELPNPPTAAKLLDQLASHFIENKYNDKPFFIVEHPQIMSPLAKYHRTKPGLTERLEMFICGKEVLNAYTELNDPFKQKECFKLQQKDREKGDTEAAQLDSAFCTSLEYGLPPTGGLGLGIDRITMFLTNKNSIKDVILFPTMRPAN
UniProt P9WNZ1, whole entry: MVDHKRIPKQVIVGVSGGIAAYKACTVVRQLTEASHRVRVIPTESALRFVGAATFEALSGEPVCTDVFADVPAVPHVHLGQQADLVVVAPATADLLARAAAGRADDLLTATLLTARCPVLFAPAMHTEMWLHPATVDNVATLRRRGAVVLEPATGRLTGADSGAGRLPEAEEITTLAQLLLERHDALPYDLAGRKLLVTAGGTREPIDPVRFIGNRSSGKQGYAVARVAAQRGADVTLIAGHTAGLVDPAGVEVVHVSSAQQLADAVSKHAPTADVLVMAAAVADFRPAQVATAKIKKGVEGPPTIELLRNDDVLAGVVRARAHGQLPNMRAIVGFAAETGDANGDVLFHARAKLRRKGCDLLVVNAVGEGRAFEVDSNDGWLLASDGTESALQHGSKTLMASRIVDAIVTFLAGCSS

The filed quantity is “Percent Effect” (%). How 0% and 100% were set is not recorded. Most values in the screen are low, and negative values occur. This is an unselected part of the compounds tested.

With CC(C)c1nc(C(=O)NCCn2ccnc2)nn1-c1cccc(F)c1 the screen gave Toxoplasma: 1.569%; Pks13 thioesterase: -26.87%; PfKRS1: 7.66%; CoaBC: -0.5008%. COc1ccccc1CN1CC[C@H](c2nnc(-c3cncn3C)o2)C1 gave Toxoplasma: 3.743%; Pks13 thioesterase: -36.05%; PfKRS1: 4.904%; CoaBC: 5.697%. CN(CCNC(=O)N1CCCC1)C(=O)OC(C)(C)C read Toxoplasma: 1.154%; Pks13 thioesterase: -33.61%; PfKRS1: 5.359%; CoaBC: 7.923%. For CC(C)C(=O)N1CCCC1c1nc(N(C)C)ncc1-c1ccc(Cl)cc1 (stereo unspecified) the result was Pks13 thioesterase: -21%; PfKRS1: 2.208%; CoaBC: -1.663%. With Cc1cnc(CN2CCCC(c3cc(C(F)(F)F)[nH]n3)C2)cn1 (stereo unspecified) the screen gave Toxoplasma: 3.992%; Pks13 thioesterase: -6.913%; PfKRS1: 0.2273%; CoaBC: 2.738%. With N#Cc1csc(CNCCOc2ccccc2)c1 the screen gave Toxoplasma: -2.996%; Pks13 thioesterase: -12.89%; PfKRS1: 1.17%; CoaBC: -2.254%. C[C@H]1CC[C@H](C(=O)N2CCC(n3cc(C4(O)CCCC4)nn3)CC2)CC1 read Toxoplasma: 8.221%; Pks13 thioesterase: -16.86%; PfKRS1: 5.459%.

For CC(Cn1cccn1)n1cnc2ccc(F)cc2c1=O (stereo unspecified) the result was Toxoplasma: -9.107%; Pks13 thioesterase: 3.583%; PfKRS1: 4.002%; CoaBC: 3.247%. CNC(=O)C1CCC2(CCN(c3nncs3)CC2)CO1 (stereo unspecified) gave Pks13 thioesterase: -24.9%; PfKRS1: -0.09126%; CoaBC: 5.906%. N#Cc1ccc(N2CCC(OC3CCOCC3)CC2)cc1Cl read Toxoplasma: 27.89%; Pks13 thioesterase: 4.37%; PfKRS1: 4.606%; CoaBC: -4.703%. With O=C(NCC(F)(F)F)C(c1cccnc1)N1CCCC1 (stereo unspecified) the screen gave Toxoplasma: -6.638%; Pks13 thioesterase: -20.92%; PfKRS1: 7.269%; CoaBC: 4.232%. Cn1cc(CNc2ccc(CCO)cc2)c(-c2ccncc2)n1 gave Toxoplasma: 1.979%; PfKRS1: 4.721%; CoaBC: 4.912%. O=C(NC1CCOCC1)c1cccc(C2CCCNC2)c1 (stereo unspecified) read Toxoplasma: -5.099%; Pks13 thioesterase: -1.981%; PfKRS1: -0.3883%; CoaBC: 4.893%. Cc1ccc(C(=O)NCC2CCCCO2)c(=O)[nH]1 (stereo unspecified) gave Toxoplasma: -7.995%; Pks13 thioesterase: -23.47%; PfKRS1: 5.363%; CoaBC: 2.479%.

CCOCCN1CCN(CCc2nc3ccccc3c(=O)[nH]2)CC1 gave Toxoplasma: -3.476%; PfKRS1: 9.976%; CoaBC: 5.697%. CCc1nc(C)c(C(=O)N2CCNCC2C(=O)Nc2ccc(C)nc2)o1 (stereo unspecified) gave Toxoplasma: 8.884%; Pks13 thioesterase: -35.8%; PfKRS1: 4.817%; CoaBC: 2.564%. CCn1cnnc1C1CCN(C(=O)COc2ccc(Cl)cc2)CC1 read Toxoplasma: 2.357%; Pks13 thioesterase: 2.066%; PfKRS1: 3.47%; CoaBC: 12.84%. CC(C)(C)c1cc(CN2C[C@@H]3CC[C@H](C2)N(Cc2ccccn2)C3)n[nH]1 read Pks13 thioesterase: -16.81%; PfKRS1: 7.413%; CoaBC: -6.71%. With CC(=O)N1C[C@H]2CCCN(S(=O)(=O)c3ccc(Cl)s3)[C@H]2C1 the screen gave PfKRS1: -1.702%; CoaBC: 4.785%.

From ChEMBL document CHEMBL3988442, “University of Dundee, Small-Polar-MMV Screening Library” (2021).